# The list shows a part of the results.
# Chains of the proteins cited; added tags and fusions are not shown.
# UniProt Q0JBA9, entry or part of it: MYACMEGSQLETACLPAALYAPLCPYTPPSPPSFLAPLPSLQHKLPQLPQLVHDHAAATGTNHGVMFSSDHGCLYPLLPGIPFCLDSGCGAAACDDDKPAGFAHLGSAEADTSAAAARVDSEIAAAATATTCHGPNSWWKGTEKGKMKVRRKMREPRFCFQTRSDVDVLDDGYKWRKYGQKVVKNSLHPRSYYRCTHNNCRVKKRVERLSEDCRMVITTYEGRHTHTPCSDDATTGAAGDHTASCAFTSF
# Molecular target: OsWRKY34 (Oryza sativa, UniProt Q0JBA9 1-250)
# Assay: protein-binding microarray (RPBM); PBS, 2% BSA, 51.3 ng/ul salmon testes DNA, 50 uM zinc acetate, 200 nM TF, 25 C, 1 h; high values mean tight binding
# Details: protein: recombinant; tags: N-terminal polyhistidine and DsRed monomer fusion (pET32a); label: CyDye5-dUTP incorporated in the synthesized complementary strand; 3' TTTTT single-stranded linker to array surface; dsDNA, one strand shown
# Outline: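 A custom Agilent array was converted to double-stranded form by primer extension with Cy5-dUTP and blocked with 2% BSA. Protein at 200 nM in PBS with 2% BSA, salmon testes DNA and 50 µM zinc acetate was applied for 1 h at 25 °C, followed by washing. The proteins were polyhistidine–DsRed N-terminal fusions of transcription factors, expressed in E. coli BL21-CodonPlus and Ni–NTA-purified. The binding signal is per-feature fluorescence intensity (arbitrary units) from an Axon 4000B scanner.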
row,Sequence,binding signal
1,CATATCAGTGGTTAACTGTGCTGTCTCAGTTGATCTCCCGCGGAGTCACCTAGTGCAG,8360 fluorescence intensity (a.u.)
2,GGAAGAAAGAGATAAGGGGCCTAACATGTGGGGTGGGTCACGGAGTCACCTAGTGCAG,10600 fluorescence intensity (a.u.)
3,CATCTTGTCACCGCCCTGAATGTTTGTGCTTAATTAATTACGGAGTCACCTAGTGCAG,9170 fluorescence intensity (a.u.)
4,CTGTGTATATTCCCCTGACCATATCTCTCTATAAATAGCCCGGAGTCACCTAGTGCAG,9350 fluorescence intensity (a.u.)
5,TCTCCGCCGTCCGTTCCCCTCTCTCTTCCTCGCCCTCGGCCGGAGTCACCTAGTGCAG,9150 fluorescence intensity (a.u.)
6,CCGTCTCGTTGTCTCCTCCGCTCCTTGCGCCGCCGCCAAGCGGAGTCACCTAGTGCAG,8270 fluorescence intensity (a.u.)
7,ATATTTGGTTTTTGGATTTTAGGGGTAATTCATACTCACCCGGAGTCACCTAGTGCAG,8740 fluorescence intensity (a.u.)
8,AACAAGCGACTCCACTGTCTCTTTCCTTTCTCTTAGTATTCGGAGTCACCTAGTGCAG,10200 fluorescence intensity (a.u.)
9,CGTTGACTTTTTTAAATATATAATTATTAATTTTTTTTCTCGGAGTCACCTAGTGCAG,23900 fluorescence intensity (a.u.)
10,GTTGACAGTTTGACATGTGCTTGTAATTCTTTACCATTCTCGGAGTCACCTAGTGCAG,12800 fluorescence intensity (a.u.)
11,GGGTTAAAAGATATGCTAGGGGTATTTTGGTCCATATAAACGGAGTCACCTAGTGCAG,14900 fluorescence intensity (a.u.)
12,ATTGATGTTACTTATTTTTTATTTGTTATAACTATTTAATCGGAGTCACCTAGTGCAG,8520 fluorescence intensity (a.u.)
13,TTTGCCTTGTCGAATCGCCGCTGCACCACCGTTCCCAACCCGGAGTCACCTAGTGCAG,9580 fluorescence intensity (a.u.)
14,CAACGGACTTGACTTGTTTAGCCTTGTACTCCTTCATTATCGGAGTCACCTAGTGCAG,9020 fluorescence intensity (a.u.)
15,AAGATTCTTCTCTTCGTCGACGACCCGGCCTCTCGCTCTCCGGAGTCACCTAGTGCAG,9630 fluorescence intensity (a.u.)
16,CCCTTCTCTTCCTTCGCTAGAAGCCGCGCTCTGCTCTTCCCGGAGTCACCTAGTGCAG,8090 fluorescence intensity (a.u.)
17,TTTGGTAGTCATTTCAGGCATGTGATGCTTCTTGGGGAGGCGGAGTCACCTAGTGCAG,8930 fluorescence intensity (a.u.)
18,ACCACACCCCACCCCAGGAATCGATTTTTTTGCGGACAGACGGAGTCACCTAGTGCAG,9910 fluorescence intensity (a.u.)
19,AATTGACTTCCTTGACCAAAAACCTCTTCTCTGATCTCTCCGGAGTCACCTAGTGCAG,10800 fluorescence intensity (a.u.)
20,GTTTTCAAGTTTTCGCTATATATGTGATTTGCACCGTACACGGAGTCACCTAGTGCAG,10100 fluorescence intensity (a.u.)
21,GATCTTGATAACTCCTAATTTTTTTTATTACTTCACCATTCGGAGTCACCTAGTGCAG,9290 fluorescence intensity (a.u.)
22,AGAATCCTTTGTTTTTGTTGTGACTTTCGAGGATGACTTTCGGAGTCACCTAGTGCAG,9230 fluorescence intensity (a.u.)
23,TTTGGTTAGGTTAGGTAGTACTGAAATCTTATGCGTAACACGGAGTCACCTAGTGCAG,9160 fluorescence intensity (a.u.)
24,GTACTACTCCTAGTACAACCTCGCCTACCCGCTGCAACCACGGAGTCACCTAGTGCAG,9420 fluorescence intensity (a.u.)
25,CCACGTGCCATCCCTGCTTTTTTCCACACCGTCCTCAGTACGGAGTCACCTAGTGCAG,10400 fluorescence intensity (a.u.)
26,CTGTGTCCGTCTCCGCTTCTCCTCCTGCCTCCTGCAGTCTCGGAGTCACCTAGTGCAG,8280 fluorescence intensity (a.u.)
27,ATATACTGCATATTTCTGTCGCTTTATCTCGATTAAGAAACGGAGTCACCTAGTGCAG,8700 fluorescence intensity (a.u.)

# Looked up one by one from the list above, 2 records:
row,Sequence,binding signal
4,CTGTGTATATTCCCCTGACCATATCTCTCTATAAATAGCCCGGAGTCACCTAGTGCAG,9350 fluorescence intensity (a.u.)
12,ATTGATGTTACTTATTTTTTATTTGTTATAACTATTTAATCGGAGTCACCTAGTGCAG,8520 fluorescence intensity (a.u.)

# Further results follow:

row,Sequence,binding signal
1,CATTACTTTTTTGGTGGACTTGCAAAAACATGGGCATTTTCGGAGTCACCTAGTGCAG,8680 fluorescence intensity (a.u.)
2,ACCATGTAACGAGTAATCTTTTGACCTGTGCCACGTCATCCGGAGTCACCTAGTGCAG,9160 fluorescence intensity (a.u.)
3,GCATCATCTATCTCGATCAAACCGAGTCAACATATGACTACGGAGTCACCTAGTGCAG,8350 fluorescence intensity (a.u.)
4,ATCATGAGTTTTGTTTTAATCTGACCCTTGTTTAAATTTCCGGAGTCACCTAGTGCAG,8830 fluorescence intensity (a.u.)
5,TGTTGCCCACGTACGTGTTGCCGACGCCGAGGTCGCAGTCCGGAGTCACCTAGTGCAG,8770 fluorescence intensity (a.u.)
6,GAGCCCGTACTCATTTCTCGCCAAGTGCACCACTTCACTCCGGAGTCACCTAGTGCAG,10700 fluorescence intensity (a.u.)
7,ATCCACTCCCACGTGGGCCCCACACCTGCCGCCGTACCACCGGAGTCACCTAGTGCAG,8120 fluorescence intensity (a.u.)
8,GCGGCATTGGAGTGGTGGCGAGGGGCGGCGGCTTCGGGTTCGGAGTCACCTAGTGCAG,8070 fluorescence intensity (a.u.)
9,CCGTCCGCCATTGCAGCTTCGTTGTTCTGTACCTTCTTGCCGGAGTCACCTAGTGCAG,10900 fluorescence intensity (a.u.)
10,GGGGAAGGGGCAGGGGAGGAAGGAGGCGCTGGGGTGGCTGCGGAGTCACCTAGTGCAG,10400 fluorescence intensity (a.u.)
11,AGATTTTGTTTATGTTATTTTTATGGGGATTATTTTATGTCGGAGTCACCTAGTGCAG,9870 fluorescence intensity (a.u.)
12,CCTATGGTTTACTGGGTTTTTTTTTCCGGAATTGCATTATCGGAGTCACCTAGTGCAG,8280 fluorescence intensity (a.u.)
13,GGTGGGTTGCTGCCTTGCAGAATGTATCGGAAAATCCTCTCGGAGTCACCTAGTGCAG,8660 fluorescence intensity (a.u.)
14,TTTTCTTTTATTTTCCACCGGTACTGTTCATTGCGCACCACGGAGTCACCTAGTGCAG,11800 fluorescence intensity (a.u.)
15,AAGGGCTTTATTCACTTTCTTGTTTTTAATCATATCAGATCGGAGTCACCTAGTGCAG,8240 fluorescence intensity (a.u.)
16,GGCTGGGCTCTGGGCTGTCGTCCGCCTCAGCGTCTTAAATCGGAGTCACCTAGTGCAG,8940 fluorescence intensity (a.u.)
17,CCATATATTGTACAGATCTTTTCATTGCTTTATCCATACTCGGAGTCACCTAGTGCAG,10000 fluorescence intensity (a.u.)
18,TTGCACAACTCCATTTGCTCCAATCCTTTTCTTCTCTTCTCGGAGTCACCTAGTGCAG,9980 fluorescence intensity (a.u.)
19,ATTCCCTCGTCGCCAGCGGTTTCGCGTTGCCGCGTTCGTCCGGAGTCACCTAGTGCAG,9100 fluorescence intensity (a.u.)
20,GCCCCACTAAAGAACATCTCCTGATTTTACATGTCATTAACGGAGTCACCTAGTGCAG,8660 fluorescence intensity (a.u.)
21,TTGTGTAGTAGTGAAAATTTCTATCGAATGTGACGCATATCGGAGTCACCTAGTGCAG,8080 fluorescence intensity (a.u.)
22,CAGGATCTTCTCCCTTGTGTTCTTGCTGCTTTTCTGCTCCCGGAGTCACCTAGTGCAG,8480 fluorescence intensity (a.u.)
23,CTGGAATTCTTCTGCCGTTGTCTGCGCCTCTGTCTGCGATCGGAGTCACCTAGTGCAG,8260 fluorescence intensity (a.u.)
24,CACCACAATCTCGTCCTCTCACTCACCCACGCACACATGCCGGAGTCACCTAGTGCAG,8860 fluorescence intensity (a.u.)
25,GATTTACTTTTCTAGAATGTGTCACATCCACCTGAAATTTCGGAGTCACCTAGTGCAG,8720 fluorescence intensity (a.u.)
26,GATTTTGGTTTGTGTTATGTCGGCAGGAGGCGGCGGCGGCCGGAGTCACCTAGTGCAG,8650 fluorescence intensity (a.u.)
27,TCACCAGTTGTTCATTGTTGTTGTACACACCATGACCGCGCGGAGTCACCTAGTGCAG,8230 fluorescence intensity (a.u.)

# Some of the entries so far, tab-delimited.
row	Sequence	binding signal
12	CCTATGGTTTACTGGGTTTTTTTTTCCGGAATTGCATTATCGGAGTCACCTAGTGCAG	8280 fluorescence intensity (a.u.)
13	GGTGGGTTGCTGCCTTGCAGAATGTATCGGAAAATCCTCTCGGAGTCACCTAGTGCAG	8660 fluorescence intensity (a.u.)
14	TTTTCTTTTATTTTCCACCGGTACTGTTCATTGCGCACCACGGAGTCACCTAGTGCAG	11800 fluorescence intensity (a.u.)
